In the supplement of paper PMC6411743:
± gives the standard deviation of the averaged measurements. The entries are a selection whose mix differs from that of the whole data set.

Sequences of proteins named here, by UniProt entry; tags and fusion partners are left off. A change or cut given only in a name is not applied to a line headed by its entry.
UniProt Q9BYV8: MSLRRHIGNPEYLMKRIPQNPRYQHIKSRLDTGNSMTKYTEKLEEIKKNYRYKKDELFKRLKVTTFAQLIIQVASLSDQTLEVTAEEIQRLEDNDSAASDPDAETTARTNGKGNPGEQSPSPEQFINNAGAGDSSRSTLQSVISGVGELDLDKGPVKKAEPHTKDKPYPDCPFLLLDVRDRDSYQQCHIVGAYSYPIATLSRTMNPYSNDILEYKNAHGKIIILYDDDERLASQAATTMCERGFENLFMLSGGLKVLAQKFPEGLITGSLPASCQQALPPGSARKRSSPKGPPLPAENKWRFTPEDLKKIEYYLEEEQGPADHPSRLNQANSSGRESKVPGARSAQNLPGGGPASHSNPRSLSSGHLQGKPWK
UniProt Q99496: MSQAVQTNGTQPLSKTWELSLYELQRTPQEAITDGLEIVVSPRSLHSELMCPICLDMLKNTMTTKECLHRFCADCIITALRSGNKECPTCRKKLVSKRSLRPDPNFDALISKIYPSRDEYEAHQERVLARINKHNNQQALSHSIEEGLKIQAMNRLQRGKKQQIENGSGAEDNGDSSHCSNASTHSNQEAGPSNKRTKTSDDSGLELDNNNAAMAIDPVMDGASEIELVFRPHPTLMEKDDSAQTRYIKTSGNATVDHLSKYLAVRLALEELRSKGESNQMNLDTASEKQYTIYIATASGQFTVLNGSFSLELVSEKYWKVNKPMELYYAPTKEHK
UniProt Q9BZL1: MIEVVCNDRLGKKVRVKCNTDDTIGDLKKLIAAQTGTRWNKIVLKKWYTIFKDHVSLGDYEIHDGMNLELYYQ
UniProt Q9BRV8: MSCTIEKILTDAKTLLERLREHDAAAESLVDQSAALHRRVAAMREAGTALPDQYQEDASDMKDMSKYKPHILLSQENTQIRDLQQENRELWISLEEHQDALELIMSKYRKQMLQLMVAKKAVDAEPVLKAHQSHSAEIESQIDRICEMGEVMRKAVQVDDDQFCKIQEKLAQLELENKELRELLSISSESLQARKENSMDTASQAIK
UniProt Q9BQI0: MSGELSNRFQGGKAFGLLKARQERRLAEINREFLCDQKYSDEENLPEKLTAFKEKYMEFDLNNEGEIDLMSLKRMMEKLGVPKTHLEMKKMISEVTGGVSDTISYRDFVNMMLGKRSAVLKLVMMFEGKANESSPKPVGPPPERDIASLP
UniProt Q99717: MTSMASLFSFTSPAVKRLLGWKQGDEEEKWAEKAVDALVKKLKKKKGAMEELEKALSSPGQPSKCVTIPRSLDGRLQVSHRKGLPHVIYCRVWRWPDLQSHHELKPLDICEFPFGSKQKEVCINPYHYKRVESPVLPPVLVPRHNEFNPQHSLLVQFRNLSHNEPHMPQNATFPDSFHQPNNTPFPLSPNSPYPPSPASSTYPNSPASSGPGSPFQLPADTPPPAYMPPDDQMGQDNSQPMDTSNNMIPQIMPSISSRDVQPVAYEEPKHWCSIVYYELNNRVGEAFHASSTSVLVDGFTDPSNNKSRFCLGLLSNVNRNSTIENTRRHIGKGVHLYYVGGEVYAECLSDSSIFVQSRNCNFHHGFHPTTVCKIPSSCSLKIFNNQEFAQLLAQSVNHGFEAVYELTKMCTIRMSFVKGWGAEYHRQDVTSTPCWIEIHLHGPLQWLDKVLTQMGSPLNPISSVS
UniProt Q9BW92: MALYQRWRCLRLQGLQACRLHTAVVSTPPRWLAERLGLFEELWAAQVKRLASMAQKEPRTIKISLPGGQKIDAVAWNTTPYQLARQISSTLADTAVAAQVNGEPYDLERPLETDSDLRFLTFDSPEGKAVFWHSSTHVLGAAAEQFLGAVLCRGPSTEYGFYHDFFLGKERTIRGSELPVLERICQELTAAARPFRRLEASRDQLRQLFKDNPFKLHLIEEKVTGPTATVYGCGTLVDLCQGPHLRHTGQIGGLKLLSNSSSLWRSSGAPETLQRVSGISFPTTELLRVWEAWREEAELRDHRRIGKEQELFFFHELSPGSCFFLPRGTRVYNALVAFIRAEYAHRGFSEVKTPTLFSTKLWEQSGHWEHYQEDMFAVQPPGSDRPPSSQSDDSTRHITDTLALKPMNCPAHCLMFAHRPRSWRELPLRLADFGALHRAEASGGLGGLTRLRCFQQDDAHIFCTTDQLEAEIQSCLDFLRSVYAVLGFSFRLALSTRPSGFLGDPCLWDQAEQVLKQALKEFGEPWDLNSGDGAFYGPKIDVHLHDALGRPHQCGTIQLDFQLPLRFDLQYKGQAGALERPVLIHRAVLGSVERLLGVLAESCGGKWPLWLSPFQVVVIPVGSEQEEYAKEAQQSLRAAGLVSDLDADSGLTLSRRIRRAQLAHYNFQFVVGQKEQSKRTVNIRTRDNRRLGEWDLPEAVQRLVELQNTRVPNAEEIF
UniProt Q9BQ67, whole entry: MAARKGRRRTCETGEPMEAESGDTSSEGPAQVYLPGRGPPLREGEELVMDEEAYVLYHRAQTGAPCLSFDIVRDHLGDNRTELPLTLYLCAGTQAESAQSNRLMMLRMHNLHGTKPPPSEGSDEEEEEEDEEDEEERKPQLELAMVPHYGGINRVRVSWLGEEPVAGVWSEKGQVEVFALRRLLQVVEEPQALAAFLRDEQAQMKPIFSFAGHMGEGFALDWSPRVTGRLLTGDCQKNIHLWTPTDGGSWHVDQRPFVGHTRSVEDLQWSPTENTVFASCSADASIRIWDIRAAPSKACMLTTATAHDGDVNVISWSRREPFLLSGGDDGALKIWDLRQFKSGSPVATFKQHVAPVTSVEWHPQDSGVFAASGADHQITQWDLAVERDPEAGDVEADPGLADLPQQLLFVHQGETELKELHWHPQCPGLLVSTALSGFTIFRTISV
UniProt Q99615: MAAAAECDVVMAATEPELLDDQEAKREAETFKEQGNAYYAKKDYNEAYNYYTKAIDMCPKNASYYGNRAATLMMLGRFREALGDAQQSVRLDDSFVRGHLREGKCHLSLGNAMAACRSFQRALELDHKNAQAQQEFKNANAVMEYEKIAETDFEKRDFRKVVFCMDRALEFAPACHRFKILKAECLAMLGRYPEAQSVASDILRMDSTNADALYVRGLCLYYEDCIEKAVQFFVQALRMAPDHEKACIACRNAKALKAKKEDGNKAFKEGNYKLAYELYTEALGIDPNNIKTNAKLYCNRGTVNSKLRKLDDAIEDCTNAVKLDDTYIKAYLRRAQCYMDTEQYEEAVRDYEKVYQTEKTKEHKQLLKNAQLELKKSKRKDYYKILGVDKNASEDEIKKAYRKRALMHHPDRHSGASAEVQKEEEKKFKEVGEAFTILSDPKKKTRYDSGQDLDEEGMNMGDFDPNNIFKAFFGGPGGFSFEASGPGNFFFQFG
UniProt Q99470: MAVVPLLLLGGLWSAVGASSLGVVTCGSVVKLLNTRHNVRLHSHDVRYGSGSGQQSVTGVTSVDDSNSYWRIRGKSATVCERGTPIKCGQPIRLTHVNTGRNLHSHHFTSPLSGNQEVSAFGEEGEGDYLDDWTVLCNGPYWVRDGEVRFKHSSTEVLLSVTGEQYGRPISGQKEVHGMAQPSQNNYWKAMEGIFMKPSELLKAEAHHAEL
UniProt Q9BYV9: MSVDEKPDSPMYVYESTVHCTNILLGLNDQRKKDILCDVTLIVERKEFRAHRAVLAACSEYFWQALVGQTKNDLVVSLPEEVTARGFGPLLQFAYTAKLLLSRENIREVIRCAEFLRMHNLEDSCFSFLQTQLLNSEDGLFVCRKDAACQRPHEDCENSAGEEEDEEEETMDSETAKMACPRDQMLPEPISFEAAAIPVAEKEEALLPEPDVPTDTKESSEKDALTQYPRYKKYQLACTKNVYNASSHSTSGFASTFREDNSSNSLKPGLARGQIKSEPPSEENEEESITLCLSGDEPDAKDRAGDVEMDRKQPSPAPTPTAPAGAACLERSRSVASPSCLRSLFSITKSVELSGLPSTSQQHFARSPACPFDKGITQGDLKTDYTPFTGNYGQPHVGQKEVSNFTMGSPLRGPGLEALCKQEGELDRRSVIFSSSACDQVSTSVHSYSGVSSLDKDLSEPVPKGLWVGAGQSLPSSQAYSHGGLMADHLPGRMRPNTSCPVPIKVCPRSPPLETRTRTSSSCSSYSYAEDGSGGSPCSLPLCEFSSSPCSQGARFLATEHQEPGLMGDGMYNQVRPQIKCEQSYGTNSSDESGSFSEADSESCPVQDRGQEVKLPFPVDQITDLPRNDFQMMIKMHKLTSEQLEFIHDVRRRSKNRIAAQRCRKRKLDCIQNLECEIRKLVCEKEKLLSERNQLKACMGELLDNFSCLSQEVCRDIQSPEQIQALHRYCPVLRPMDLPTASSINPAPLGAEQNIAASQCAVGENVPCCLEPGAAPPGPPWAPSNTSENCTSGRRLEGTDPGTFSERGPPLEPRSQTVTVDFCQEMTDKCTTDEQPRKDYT
UniProt Q9BRA0: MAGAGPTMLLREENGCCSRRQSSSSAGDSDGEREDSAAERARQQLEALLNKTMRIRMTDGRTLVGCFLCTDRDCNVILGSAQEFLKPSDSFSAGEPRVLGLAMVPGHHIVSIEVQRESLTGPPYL
UniProt Q99536: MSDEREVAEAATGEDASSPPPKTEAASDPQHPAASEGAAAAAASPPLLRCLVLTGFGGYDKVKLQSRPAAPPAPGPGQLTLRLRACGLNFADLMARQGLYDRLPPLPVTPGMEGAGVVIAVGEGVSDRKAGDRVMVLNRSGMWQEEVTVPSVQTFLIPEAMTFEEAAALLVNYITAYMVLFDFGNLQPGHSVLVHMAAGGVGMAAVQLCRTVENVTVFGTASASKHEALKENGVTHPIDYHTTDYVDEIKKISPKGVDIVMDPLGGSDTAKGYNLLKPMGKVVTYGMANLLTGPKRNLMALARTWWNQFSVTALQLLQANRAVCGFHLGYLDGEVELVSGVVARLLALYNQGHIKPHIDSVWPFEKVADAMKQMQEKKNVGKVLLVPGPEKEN
UniProt Q99873, whole entry, looked up: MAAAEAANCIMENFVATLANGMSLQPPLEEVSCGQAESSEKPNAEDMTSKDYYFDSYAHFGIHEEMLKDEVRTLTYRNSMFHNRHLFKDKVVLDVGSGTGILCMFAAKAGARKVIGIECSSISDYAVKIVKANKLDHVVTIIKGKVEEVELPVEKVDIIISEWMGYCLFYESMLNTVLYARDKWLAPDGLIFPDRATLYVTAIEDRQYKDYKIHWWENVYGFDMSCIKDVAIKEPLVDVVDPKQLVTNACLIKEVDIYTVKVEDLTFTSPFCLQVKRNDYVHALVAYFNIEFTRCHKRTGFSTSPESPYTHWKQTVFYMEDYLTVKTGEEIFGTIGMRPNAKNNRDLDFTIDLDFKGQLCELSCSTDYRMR
UniProt Q9BYX2: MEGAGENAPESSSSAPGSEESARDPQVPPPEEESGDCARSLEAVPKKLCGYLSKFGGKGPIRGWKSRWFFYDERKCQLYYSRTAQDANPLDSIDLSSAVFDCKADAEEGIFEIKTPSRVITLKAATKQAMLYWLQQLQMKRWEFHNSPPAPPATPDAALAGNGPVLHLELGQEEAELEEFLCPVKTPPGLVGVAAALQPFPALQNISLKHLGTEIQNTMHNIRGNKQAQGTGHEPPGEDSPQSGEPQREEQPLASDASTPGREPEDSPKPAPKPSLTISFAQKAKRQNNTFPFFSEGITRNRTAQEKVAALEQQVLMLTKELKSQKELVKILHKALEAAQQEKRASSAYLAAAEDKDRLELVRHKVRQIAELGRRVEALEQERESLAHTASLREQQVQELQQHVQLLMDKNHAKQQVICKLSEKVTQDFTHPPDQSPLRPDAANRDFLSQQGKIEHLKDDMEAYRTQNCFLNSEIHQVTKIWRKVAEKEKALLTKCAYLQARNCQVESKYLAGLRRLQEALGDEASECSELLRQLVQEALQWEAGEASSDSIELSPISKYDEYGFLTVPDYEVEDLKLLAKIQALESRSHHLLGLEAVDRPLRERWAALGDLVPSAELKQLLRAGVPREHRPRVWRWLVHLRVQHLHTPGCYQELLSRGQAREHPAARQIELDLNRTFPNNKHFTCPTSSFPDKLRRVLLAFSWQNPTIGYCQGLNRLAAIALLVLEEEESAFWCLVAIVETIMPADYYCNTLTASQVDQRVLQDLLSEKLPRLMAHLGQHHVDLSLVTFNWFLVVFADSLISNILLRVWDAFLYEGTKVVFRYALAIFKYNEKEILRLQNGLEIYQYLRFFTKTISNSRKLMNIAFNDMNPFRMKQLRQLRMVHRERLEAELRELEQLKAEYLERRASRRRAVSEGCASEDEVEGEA
UniProt Q99943: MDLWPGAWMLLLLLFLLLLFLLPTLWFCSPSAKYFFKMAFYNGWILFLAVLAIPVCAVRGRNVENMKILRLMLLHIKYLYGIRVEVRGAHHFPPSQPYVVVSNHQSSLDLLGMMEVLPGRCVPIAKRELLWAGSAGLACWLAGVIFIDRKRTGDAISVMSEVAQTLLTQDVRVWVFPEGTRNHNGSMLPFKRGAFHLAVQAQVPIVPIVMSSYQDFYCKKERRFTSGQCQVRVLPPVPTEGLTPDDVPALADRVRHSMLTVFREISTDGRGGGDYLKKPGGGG
UniProt Q9BT73: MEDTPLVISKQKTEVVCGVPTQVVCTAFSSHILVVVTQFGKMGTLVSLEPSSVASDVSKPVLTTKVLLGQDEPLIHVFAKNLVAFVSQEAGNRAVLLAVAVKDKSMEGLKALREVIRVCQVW

What follows are targets tested with Nc1ncnc2c1ncn2[C@@H]1O[C@H](COP(=O)(O)OP(=O)(O)OP(=O)(O)O)[C@@H](O)[C@H]1O [adenosine triphosphate] (assay: NP40-soluble protein abundance relative to vehicle (solubility fold change) (ratio); higher = more soluble protein in presence of ATP). Conditions: concentration: 4mM.
Summary of the method: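 Data come from three independent experiments in which Dounce-homogenised Jurkat crude lysate was treated at eight concentrations from 0.1 to 10 mM. Treatment ran 10 min at room temperature and then 3 min at 37 °C, after which 0.8% NP40 and benzonase were added for 60 min at 4 °C before ultracentrifugation. The supernatant underwent TMT labelling and LC-MS/MS, and vsn-normalised intensities were expressed as fold change against the detergent-processed vehicle in each replicate.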
For UniProt Q9BQF6 and related entries, the NP40-soluble protein abundance was 1.13 ± 0.13. “UniProt Q9BZ29-4|A0A088AWN3|A0A0A0MRA7|A0A0A0MSY4|Q9BZ29 and related entries” gave an NP40-soluble protein abundance of 0.973 ± 0.076. With TRMT61B (UniProt Q9BVS5) the NP40-soluble protein abundance was 1.03 ± 0.047. For UniProt Q9BYV8, the NP40-soluble protein abundance was 1.014 ± 0.0022. For UHRF1 (UniProt Q96T88), the NP40-soluble protein abundance was 1.09 ± 0.082. In the case of POP1 (UniProt Q99575), the NP40-soluble protein abundance is reported as 1.05 ± 0.015. Work on NLN (UniProt Q9BYT8) yielded an NP40-soluble protein abundance of 0.983 ± 0.092. In the case of RNF2 (UniProt Q99496), the NP40-soluble protein abundance is reported as 1.15 ± 0.015. In the case of UniProt Q9BZL1, the NP40-soluble protein abundance is reported as 1.072 ± 0.0098. In the case of SIKE1 (UniProt Q9BRV8), the NP40-soluble protein abundance is reported as 0.944 ± 0.066. In the case of UniProt Q9BQI0 and related entries, the NP40-soluble protein abundance is reported as 0.9 ± 0.12. With UniProt Q9BQC6 the NP40-soluble protein abundance was 0.9318 ± 0.0087. SH3GL1 (UniProt Q99961) gave an NP40-soluble protein abundance of 0.997 ± 0.041. Work on SMAD5 (UniProt Q99717) yielded an NP40-soluble protein abundance of 1.115 ± 0.0078. With TARS2 (UniProt Q9BW92) the NP40-soluble protein abundance was 1.06 ± 0.071. Target MRPL9 (UniProt Q9BYD2) has an NP40-soluble protein abundance of 0.899 ± 0.092. POLR3C (UniProt Q9BUI4) showed an NP40-soluble protein abundance of 0.972 ± 0.057. GRWD1 (UniProt Q9BQ67) showed an NP40-soluble protein abundance of 1.05 ± 0.03. With UniProt Q96T76 and related entries the NP40-soluble protein abundance was 0.962 ± 0.052. In the case of UniProt Q9BXW9 and related entries, the NP40-soluble protein abundance is reported as 0.9 ± 0.043. With DNAJC7 (UniProt Q99615) the NP40-soluble protein abundance was 0.918 ± 0.018. SDF2 (UniProt Q99470) was tested, and the NP40-soluble protein abundance was 1 ± 0.018. In the case of BACH2 (UniProt Q9BYV9), the NP40-soluble protein abundance is reported as 0.957 ± 0.035. UniProt Q99729-3|Q99729 showed an NP40-soluble protein abundance of 0.92 ± 0.053. Work on UniProt Q9BRA0 and related entries yielded an NP40-soluble protein abundance of 0.894 ± 0.052. Target VAT1 (UniProt Q99536) has an NP40-soluble protein abundance of 0.933 ± 0.028. Target RBCK1 (UniProt Q9BYM8) has an NP40-soluble protein abundance of 0.962 ± 0.035. For UniProt Q99873-3|Q99873-4, the NP40-soluble protein abundance was 1.05 ± 0.16. For UniProt Q9BYX2 and related entries, the NP40-soluble protein abundance was 1.03 ± 0.098. Target “UniProt Q99708-3|I6L8A6 and related entries” has an NP40-soluble protein abundance of 0.984 ± 0.021. With BRIP1 (UniProt Q9BX63) the NP40-soluble protein abundance was 1.11 ± 0.1. Work on AGPAT1 (UniProt Q99943) yielded an NP40-soluble protein abundance of 0.964 ± 0.039. For “UniProt Q9BRR9-2|Q9BRR9-4|Q9BRR9-5|R4GN15”, the NP40-soluble protein abundance was 0.897 ± 0.069. PSMG3 (UniProt Q9BT73) was tested, and the NP40-soluble protein abundance was 0.9633 ± 0.0071.

Same assay, conditions: concentration: 6mM
With UniProt Q9BQF6 and related entries the NP40-soluble protein abundance was 1.17 ± 0.086. Target “UniProt Q9BZ29-4|A0A088AWN3|A0A0A0MRA7|A0A0A0MSY4|Q9BZ29 and related entries” has an NP40-soluble protein abundance of 1.07 ± 0.24. For TRMT61B (UniProt Q9BVS5), the NP40-soluble protein abundance was 1 ± 0.07. Target UniProt Q9BYV8 has an NP40-soluble protein abundance of 1.01 ± 0.048. In the case of UHRF1 (UniProt Q96T88), the NP40-soluble protein abundance is reported as 1.16 ± 0.068. POP1 (UniProt Q99575) was tested, and the NP40-soluble protein abundance was 1.06 ± 0.098. Target NLN (UniProt Q9BYT8) has an NP40-soluble protein abundance of 0.971 ± 0.099. With RNF2 (UniProt Q99496) the NP40-soluble protein abundance was 1.19 ± 0.016. In the case of UniProt Q9BZL1, the NP40-soluble protein abundance is reported as 1.12 ± 0.096. SIKE1 (UniProt Q9BRV8) showed an NP40-soluble protein abundance of 0.902 ± 0.094. Target UniProt Q9BQI0 and related entries has an NP40-soluble protein abundance of 0.932 ± 0.16. UniProt Q9BQC6 gave an NP40-soluble protein abundance of 0.98 ± 0.077. Work on SH3GL1 (UniProt Q99961) yielded an NP40-soluble protein abundance of 1 ± 0.034. Work on SMAD5 (UniProt Q99717) yielded an NP40-soluble protein abundance of 1.1211 ± 0.00047. TARS2 (UniProt Q9BW92) showed an NP40-soluble protein abundance of 0.982 ± 0.079. Target MRPL9 (UniProt Q9BYD2) has an NP40-soluble protein abundance of 0.879 ± 0.24. For POLR3C (UniProt Q9BUI4), the NP40-soluble protein abundance was 0.974 ± 0.043. With GRWD1 (UniProt Q9BQ67) the NP40-soluble protein abundance was 1.1 ± 0.053. UniProt Q96T76 and related entries gave an NP40-soluble protein abundance of 0.877 ± 0.06. In the case of UniProt Q9BXW9 and related entries, the NP40-soluble protein abundance is reported as 0.906 ± 0.037. Work on DNAJC7 (UniProt Q99615) yielded an NP40-soluble protein abundance of 0.973 ± 0.031. SDF2 (UniProt Q99470) showed an NP40-soluble protein abundance of 0.999 ± 0.036. For BACH2 (UniProt Q9BYV9), the NP40-soluble protein abundance was 1.03 ± 0.083. With UniProt Q99729-3|Q99729 the NP40-soluble protein abundance was 1.03 ± 0.12. In the case of UniProt Q9BRA0 and related entries, the NP40-soluble protein abundance is reported as 0.896 ± 0.09. VAT1 (UniProt Q99536) was tested, and the NP40-soluble protein abundance was 0.979 ± 0.05. Work on RBCK1 (UniProt Q9BYM8) yielded an NP40-soluble protein abundance of 0.959 ± 0.047. With UniProt Q99873-3|Q99873-4 the NP40-soluble protein abundance was 0.945 ± 0.2. With UniProt Q9BYX2 and related entries the NP40-soluble protein abundance was 1.06 ± 0.1. With “UniProt Q99708-3|I6L8A6 and related entries” the NP40-soluble protein abundance was 0.921 ± 0.095. BRIP1 (UniProt Q9BX63) showed an NP40-soluble protein abundance of 1.07 ± 0.071. With AGPAT1 (UniProt Q99943) the NP40-soluble protein abundance was 0.958 ± 0.06. “UniProt Q9BRR9-2|Q9BRR9-4|Q9BRR9-5|R4GN15” gave an NP40-soluble protein abundance of 0.838 ± 0.075. With PSMG3 (UniProt Q9BT73) the NP40-soluble protein abundance was 0.863 ± 0.11.

Same assay, conditions: concentration: 8mM
In the case of UniProt Q9BQF6 and related entries, the NP40-soluble protein abundance is reported as 1.21 ± 0.056. “UniProt Q9BZ29-4|A0A088AWN3|A0A0A0MRA7|A0A0A0MSY4|Q9BZ29 and related entries” was tested, and the NP40-soluble protein abundance was 1.07 ± 0.011. TRMT61B (UniProt Q9BVS5) was tested, and the NP40-soluble protein abundance was 1.01 ± 0.042. UniProt Q9BYV8 showed an NP40-soluble protein abundance of 1 ± 0.035. With UHRF1 (UniProt Q96T88) the NP40-soluble protein abundance was 1.13 ± 0.086. POP1 (UniProt Q99575) gave an NP40-soluble protein abundance of 1.11 ± 0.05. NLN (UniProt Q9BYT8) was tested, and the NP40-soluble protein abundance was 1.01 ± 0.068. Work on RNF2 (UniProt Q99496) yielded an NP40-soluble protein abundance of 1.22 ± 0.045. For UniProt Q9BZL1, the NP40-soluble protein abundance was 1.1 ± 0.056. For SIKE1 (UniProt Q9BRV8), the NP40-soluble protein abundance was 0.896 ± 0.014. Work on UniProt Q9BQI0 and related entries yielded an NP40-soluble protein abundance of 0.898 ± 0.066. UniProt Q9BQC6 showed an NP40-soluble protein abundance of 0.936 ± 0.028. SH3GL1 (UniProt Q99961) gave an NP40-soluble protein abundance of 0.978 ± 0.035. Work on SMAD5 (UniProt Q99717) yielded an NP40-soluble protein abundance of 1.137 ± 0.0041. For TARS2 (UniProt Q9BW92), the NP40-soluble protein abundance was 1.05 ± 0.042. Target MRPL9 (UniProt Q9BYD2) has an NP40-soluble protein abundance of 0.931 ± 0.16. POLR3C (UniProt Q9BUI4) showed an NP40-soluble protein abundance of 1 ± 0.052. GRWD1 (UniProt Q9BQ67) was tested, and the NP40-soluble protein abundance was 1.13 ± 0.02. UniProt Q96T76 and related entries showed an NP40-soluble protein abundance of 0.932 ± 0.054. Work on UniProt Q9BXW9 and related entries yielded an NP40-soluble protein abundance of 0.886 ± 0.048. For DNAJC7 (UniProt Q99615), the NP40-soluble protein abundance was 0.939 ± 0.03. In the case of SDF2 (UniProt Q99470), the NP40-soluble protein abundance is reported as 0.977 ± 0.037. For BACH2 (UniProt Q9BYV9), the NP40-soluble protein abundance was 0.982 ± 0.05. In the case of UniProt Q99729-3|Q99729, the NP40-soluble protein abundance is reported as 0.938 ± 0.019. Target UniProt Q9BRA0 and related entries has an NP40-soluble protein abundance of 0.901 ± 0.097. Work on VAT1 (UniProt Q99536) yielded an NP40-soluble protein abundance of 0.935 ± 0.044. In the case of RBCK1 (UniProt Q9BYM8), the NP40-soluble protein abundance is reported as 0.946 ± 0.05. Target UniProt Q99873-3|Q99873-4 has an NP40-soluble protein abundance of 1.11 ± 0.11. For UniProt Q9BYX2 and related entries, the NP40-soluble protein abundance was 0.994 ± 0.051. Target “UniProt Q99708-3|I6L8A6 and related entries” has an NP40-soluble protein abundance of 0.89 ± 0.086. With BRIP1 (UniProt Q9BX63) the NP40-soluble protein abundance was 1.03 ± 0.092. AGPAT1 (UniProt Q99943) was tested, and the NP40-soluble protein abundance was 0.972 ± 0.035. Work on “UniProt Q9BRR9-2|Q9BRR9-4|Q9BRR9-5|R4GN15” yielded an NP40-soluble protein abundance of 0.855 ± 0.059. For PSMG3 (UniProt Q9BT73), the NP40-soluble protein abundance was 0.896 ± 0.047.
